# Data as given in PubChem BioAssay AID540256 (National Center for Advancing Translational Sciences (NCATS), 2011).
# Among all 300,000 compounds or so, about 3,700 (1.2%) were called active. This list was built around the results that the source calls inconclusive (neither active nor inactive); the mix of calls is not that of the screen. Calls come from the whole dose curve; tested in HEK293 cells. Potencies of inconclusive entries are doubtful fits and often do not repeat.
# Assay: qHTS for Inhibitors of binding or entry into cells for Lassa Virus; note: nearly all actives have a fitted effect of over 50% in size
# Conditions: Lassa virus pseudotype entry inhibition, cell reporter; activity change, negative = inhibition: at 37.9 µM (top of the series) unless noted
# % is set by controls: 0 for no effect and ±100 for the full control effect; potency is the fitted concentration of half-maximal effect.
SMILES,"activity change, negative = inhibition",Potency
O=C(O)CCCCCNC(=O)Nc1ccc2c(c1)OCCO2,inactive: 16.2%,
COc1ccc2nc3sc(C(=O)NCCCN4CCc5ccccc5C4)cc3cc2c1,,"inconclusive: 29.1 µM [inhibitor, single point]"
CN1CCC[C@H]1c1cccnc1,,"inconclusive: 0.0041 µM [activator, full curve, poor fit]"
COc1cc(OC)c(NC(=O)Cn2cnc3sc(C)c(S(=O)(=O)N4CCN(C)CC4)c3c2=O)cc1Cl,,"inconclusive: 7.08 µM [activator, full curve, poor fit]"
CC1CCCCN1C(=O)CSc1nc(C2CC2)nc2ccccc12 (stereo not given),inactive: -15.4% [at 46.1 µM],
Cc1ccc2[nH]c(=O)c(CN(CC3CCCO3)S(=O)(=O)c3c(C)ccc4nsnc34)cc2c1 (stereo not given),,"inconclusive: 18.3 µM [inhibitor, single point]"
O=C(CCC1N=C2c3ccccc3N=C(SCc3ccc(Cl)cc3)N2C1=O)NCc1ccco1 (stereo not given),inactive: 6.97%,
CC(=O)c1cccc(NC(=O)CCS(=O)(=O)c2cccc3nonc23)c1,,"inconclusive: 32.6 µM [activator, single point]"
O=C(CN(c1ccc(F)cc1)S(=O)(=O)c1ccc2c(c1)OCCO2)Nc1ccc2c(c1)OCO2,,"inconclusive: 17.8 µM [inhibitor, partial curve, poor fit]"
CN(c1cccc2cccnc12)S(=O)(=O)c1ccccc1,inactive: 7.41% [at 46.1 µM],
CC(C)(C)c1ccc(C(=O)Nc2cccc([N+](=O)[O-])c2)cc1,,"inconclusive: 23.1 µM [inhibitor, partial curve, poor fit]"
CCOC(=O)c1c(NC(=O)CSc2nccc(=O)[nH]2)sc(C)c1C,,"inconclusive: 28.2 µM [inhibitor, single point]"
Cc1cc(NC(=O)c2cccc([N+](=O)[O-])c2)no1,inactive: -7.71%,
COc1ccc(-c2oc(NC(=O)CCl)c(C#N)c2-c2ccc(OC)cc2)cc1,,"inconclusive: 12.6 µM [inhibitor, partial curve, poor fit]"
COc1cccc(-c2ccc(NC(=O)C3CCCN(Cc4nccn4C)C3)cc2)c1 (stereo not given),inactive: -3.76%,
Cc1ccc(CN(C)C(=O)c2cccc(S(=O)(=O)N3CCN(Cc4ccccc4)CC3)c2)o1,,"inconclusive: 2 µM [inhibitor, single point]"
COC(=O)C(Cc1ccc(O)cc1)NC(=O)CCNC(=O)c1ccco1 (stereo not given),inactive: -4.61%,
CCCCC(NC(C)=O)c1nc2ccccc2n1CCC (stereo not given),,"inconclusive: 0.164 µM [activator, full curve, poor fit]"
COc1ccccc1NS(=O)(=O)c1cc([N+](=O)[O-])ccc1N/N=C/c1c(C)[nH]c2ccccc12,,"inconclusive: 20.6 µM [inhibitor, single point]"
C(=N\n1cnc2ccccc21)/c1cccnc1,,"inconclusive: 13 µM [activator, partial curve, poor fit]"
Cc1nnc2n(-c3ccccc3)c(=O)c3c4c(sc3n12)COC(C)(C)C4,inactive: -3.27%,
Cc1ccc(C)c(NC(=O)C(=O)NCCc2csc3nc(-c4ccccc4C)nn23)c1,inactive: 11.4% [at 46.1 µM],
CCOC(=O)c1oc2c(c1C)-c1nn(Cc3ccccc3Cl)cc1CC2,,"inconclusive: 7.08 µM [inhibitor, full curve, poor fit]"
CC(C)(C)n1nnnc1C(c1cccnc1)N1CCN(c2ccccc2)CC1 (stereo not given),inactive: 5.67%,

SMILES,"activity change, negative = inhibition",Potency
CN(C)c1ccc(/C=N/n2c(C3CCCCC3)n[nH]c2=S)cc1,,"inconclusive: 3.98 µM [inhibitor, full curve, poor fit]"
O=C(c1cccc(S(=O)(=O)N2CCCC2)c1)N1CCCC(C(F)(F)F)C1 (stereo not given),inactive: 1.32%,
O=c1[nH]c2cc3c(cc2cc1CN(Cc1ccco1)C(=S)NCC1CCCO1)OCCO3 (stereo not given),,"inconclusive: 16.4 µM [inhibitor, partial curve]"
NC(N)=N/N=C(\N=Nc1ccccc1)c1ccc(Cl)cc1,,active: 15.8 µM
CC(C)(C)OC(=O)N1CCC(c2c(C(=O)Nc3ccc4c(c3)OCCO4)cnn2-c2ccccc2)CC1,inactive: 5.77% [at 46.1 µM],
O=C(Nc1cc([N+](=O)[O-])ccc1F)c1ccc2ccccc2c1,,"inconclusive: 12.6 µM [inhibitor, partial curve, poor fit]"
O=C1NC(SCCCF)=N/C1=C/c1ccc(-n2cncn2)cc1,,"inconclusive: 2.51 µM [inhibitor, full curve, poor fit]"
Cc1cc(C(=O)N/N=C/c2cccn2C)n[nH]1,inactive: 7.22%,
O=C(CN1CCN(S(=O)(=O)c2ccc(Br)cc2)CC1)Nc1ccc(F)cc1,,"inconclusive: 35.5 µM [inhibitor, single point]"
c1ccc2sc(-c3ccc4c(c3)OCO4)nc2c1,,active: 9.2 µM
COc1cc(N2CCCC2)c(OC)cc1C=O,inactive: 1.57%,
Cc1ccc2c(c1)C1NC(=S)NC(C)(O2)C1C(=O)Nc1ccc(Cl)cc1 (stereo not given),,"inconclusive: 22.4 µM [inhibitor, single point]"
CCOC(=O)c1c(NC(=O)CSc2nnc(-c3c[nH]c4ccccc34)n2CCOC)sc2c1CCCCC2,,active: 23.1 µM
COc1ccc(N2CCN(C(=O)COC(=O)CCS(=O)(=O)c3ccc(C)cc3)CC2)cc1,,"inconclusive: 0.398 µM [activator, partial curve, poor fit]"
CCOc1ccc(S(=O)(=O)N(C)c2ccc(OCC(=O)NCc3ccc(C(=O)OC)cc3)cc2)cc1,,active: 3.16 µM
O=c1cc(O)c2sc(Nc3cccc(C(F)(F)F)c3)nc2[nH]1,,"inconclusive: 20 µM [activator, single point]"
CCCC(C(=O)OCCN(CC)CC)(c1ccccc1)c1ccccc1,,"inconclusive: 0.0366 µM [activator, full curve, poor fit]"
O=C(/C=C/c1cccc(Br)c1)c1ccc2c(c1)OCO2,,"inconclusive: 1.78 µM [inhibitor, partial curve, poor fit]"
O=C(CSc1nc2c(c(=O)[nH]1)CCCC2)Nc1ccc(Br)cc1,inactive: 12.1% [at 46.1 µM],
O=C(Nc1cc(Sc2nc3ccccc3s2)cc([N+](=O)[O-])c1)c1ccccc1F,,"inconclusive: 12.6 µM [inhibitor, partial curve]"
CN(C)/C=C/C(=O)/C=C/c1ccc(Cl)cc1,,"inconclusive: 2.24 µM [inhibitor, full curve]"
CC(=O)N1c2ccc(S(=O)(=O)N3CCC(C(=O)N4CCN(c5cc(Cl)ccc5C)CC4)CC3)cc2CC1C (stereo not given),,"inconclusive: 8.91 µM [inhibitor, partial curve, poor fit]"
Cc1nn(-c2ccccc2)c(C)c1NC(=O)COC(=O)Cc1ccccc1F,inactive: -0.424% [at 46.1 µM],
CCC(Sc1ncccc1C(=O)O)C(=O)N1CCOCC1 (stereo not given),,"inconclusive: 29.1 µM [inhibitor, single point]"

SMILES,"activity change, negative = inhibition",Potency
COCC(=O)Nc1nc2ccc(C)cc2s1,,"inconclusive: 29.1 µM [inhibitor, single point]"
COc1ccccc1C1NC=C([N+](=O)[O-])C=C1[N+](=O)[O-] (stereo not given),inactive: -2.72%,
C/C(=N\Nc1ccc(Cl)c(C(=O)O)c1)c1ccc2c(c1)OCO2,inactive: -2.61%,
Cn1c(C(=O)N2CCCC(C(=O)NCCN3CCOCC3)C2)cc2sccc21 (stereo not given),inactive: 13.8%,
O=C1COP(=O)(OC(CBr)COCc2ccccc2)OC1 (stereo not given),,"inconclusive: 7.91 µM [inhibitor, full curve, poor fit]"
Cc1cccc2c(C(=O)O)cc(-c3cccnc3)nc12,inactive: -15%,
CCC(C)Nc1nc2c(c(=O)n(C)c(=O)n2C)n1C (stereo not given),,"inconclusive: 22.4 µM [inhibitor, single point]"
O=C(CCCn1c(=O)c2sccc2n(Cc2ccc(F)cc2)c1=O)NCc1ccco1,,"inconclusive: 7.3 µM [inhibitor, partial curve]"
Cc1ccc(N(CC(=O)NCc2ccccc2)C(=O)CCC(=O)Nc2ccccn2)cc1C,,"inconclusive: 10 µM [inhibitor, partial curve]"
Cc1ncc(CO)c2cc(-c3nnc(Nc4ccc5c(c4)OCO5)s3)c(=O)oc12,inactive: 20.1%,
COc1ccc(NC(=O)CCCN(C)S(=O)(=O)c2ccc(C)cc2)cc1,,"inconclusive: 16.4 µM [inhibitor, single point]"
Cc1cc(NC(=O)Cn2nc(C)n3cccc3c2=O)ccc1Br,,"inconclusive: 35.5 µM [inhibitor, single point]"
CN(C)CCNC(=O)/C(=C/c1ccc(-c2cccc(Cl)c2)o1)NC(=O)c1ccccc1,,"inconclusive: 29.1 µM [inhibitor, single point]"
COc1ccc(-n2c(SCC(=O)Nc3nccs3)nnc2-c2ccccc2)cc1,,"inconclusive: 13 µM [inhibitor, partial curve]"
CCN(Cc1ccncc1)Cc1nc(CC2CC2)no1,inconclusive: 6.88% [activator],
COc1ccc2c(c1)[nH]c1c(N3CCSCC3)ncnc12,,"inconclusive: 25.1 µM [inhibitor, single point]"
Cn1nc(C(F)(F)F)c(/C=N/OC(=O)c2ccccc2Cl)c1SCc1ccc(Cl)cc1,,"inconclusive: 32.6 µM [inhibitor, single point]"
N#CCSc1ccc(-c2nc3ccccc3[nH]2)cn1,,"inconclusive: 35.5 µM [inhibitor, single point]"
CCOC(=O)c1cc2ccc3ccccc3c2s1,,"inconclusive: 35.5 µM [inhibitor, single point]"
CCOC(=O)Nc1ccc2c(c1)ncn2C1CCCCC1,inactive: 3.7%,
OCc1ccc(O)c2ncccc12,,"inconclusive: 35.5 µM [inhibitor, single point]"
COc1cc(C2C3=C(COC3=O)OC(C)(C)Oc3cc4c(cc32)OCO4)cc(OC)c1OC (stereo not given),,"inconclusive: 1.58 µM [inhibitor, partial curve]"

# Grouped by structure: those above with a tert-butyl group.
SMILES,"activity change, negative = inhibition",Potency
CC(C)(C)c1ccc(C(=O)Nc2cccc([N+](=O)[O-])c2)cc1,,"inconclusive: 23.1 µM [inhibitor, partial curve, poor fit]"
CC(C)(C)n1nnnc1C(c1cccnc1)N1CCN(c2ccccc2)CC1 (stereo not given),inactive: 5.67%,
CC(C)(C)OC(=O)N1CCC(c2c(C(=O)Nc3ccc4c(c3)OCCO4)cnn2-c2ccccc2)CC1,inactive: 5.77% [at 46.1 µM],
